The target in experiment [1] is T1, FLAG-tagged evectin-2 (WT) (UniProt Q96CS7).
T1 sequence: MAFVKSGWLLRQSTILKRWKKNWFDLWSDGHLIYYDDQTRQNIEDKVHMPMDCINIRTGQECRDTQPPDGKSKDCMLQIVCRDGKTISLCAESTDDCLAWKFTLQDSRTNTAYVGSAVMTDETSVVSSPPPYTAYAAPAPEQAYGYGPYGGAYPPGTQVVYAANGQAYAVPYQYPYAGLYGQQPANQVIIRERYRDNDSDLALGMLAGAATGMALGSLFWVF
Kind of experiment: co-IP; FLAG-tagged evectin-2 (WT, PPPA or ΔPPPY) expressed in COS-1 cells for 24 h; lysate in 25 mM HEPES-KOH pH 7.33, 150 mM NaCl, 1 mM EDTA, 1% Triton X-100; anti-FLAG M2 affinity gel, 2 h at 4 °C; blotted for endogenous Itch, WWP1, WWP2.

Experiment [2] addresses T2, FLAG-tagged evectin-2 ΔPPPY mutant (UniProt Q96CS7).
T2 sequence: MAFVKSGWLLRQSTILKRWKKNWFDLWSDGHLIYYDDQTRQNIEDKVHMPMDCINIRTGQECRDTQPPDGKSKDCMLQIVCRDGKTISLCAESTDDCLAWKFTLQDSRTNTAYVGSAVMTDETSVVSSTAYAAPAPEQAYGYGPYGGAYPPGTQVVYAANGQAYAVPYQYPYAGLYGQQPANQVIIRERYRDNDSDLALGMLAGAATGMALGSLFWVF
Described as above.

No constants are given. Whether binding was seen depends on the method and setting. In cells and extracts the contact can be indirect. For part of these data: A result given as binding can be weak or reduced; the word gives no strength. Where a sequence is shown, tags or fusion partners need not be part of it.

Turning to WWP1 (endogenous) (enzyme), the binding entry in experiment [1] is “binds”; in experiment [2], “no binding”.

Consider Itch (endogenous) (enzyme), for which the binding entry in experiment [1] is recorded as “binds”; in experiment [2], “no binding”.

In the case of WWP2 (endogenous) (enzyme), the binding entry in experiment [1] was “binds”; in experiment [2] it was “no binding”.

The record behind these values is PMC5665887.
